US20060057104A1, “Methods for stimulating tlr irf3 pathways for inducing anti-microbial, anti-inflammatory and anticancer responses” (THE Regents of the University of California Office of the …, priority 2002, published 2006)
Some results were stated once for a whole list of compounds, not compound by compound.

Tested on: BMMs
Experiment: Q-PCR gene expression in BMMs stimulated with TLR agonists (Example 1)
Format: cell-based, murine
Details: by 2 h; 1 ng/mL LPS/lipid A or 1 μg/mL poly I:C
Protocol: (C) BMM's were stimulated with the following TLR-agonists: lipid A (1 ng/mL), peptidoglycan (PGN) (10 μg/mL), poly I:C (I μg/ml), or CpG (100 nM) for 30 min, and cell extracts were used for an in vitro kinase assay using GST-c-jun as a substrate (upper left), identical simulations were repeated for I hr, and RNA was harvested, and used for Q-PCR analysis.
(A) BMMs were stimulated for the indicated time points with the following TLR-agonists: lipid A (1 ng/ml), PGN (20 μg/ml), poly I:C (1 μg/ml), or CpG (100 nM), and RNA was harvested and used for Q-PCR analysis. […]
RNA was isolated for both Northern blotting and quantitative real-time PCR (Q-PCR) using a standard guanidium isothiocyanate method. […] For Q-PCR, RNA was quantitated and 2 μg of RNA was used to make cDNA templates using Superscript II (Invitrogen) according the manufactuors instruction with either oligo-dT or random hexamer as primers. […]
We then investigated the TLR-specificity of gene expression in BMMs using specific agonists for TLR4 (lipid A), TLR2 (peptioglycan), TLR3 (poly I:C) and TLR9 (CpG). In order to account for differences in binding affinity and receptor expression, the concentrations of TLR ligands used for stimulation were titrated to produce roughly equivalent activation of the JNK pathway as determined by GST-c-Jun in vitro kinase assay (FIG. 2C, upper left).

## lipid A
  increase in gene expression: > 50 fold
